Test results reported in US7265132B2, “Compounds useful as reversible inhibitors of cysteine proteases” (Boehringer Ingelheim Pharmaceuticals Inc., priority 1999, dated 2007).
Some of these results come from one statement about several compounds together. For at least one compound, name, drawing or mass did not settle the structure.

Protein sequences, listed by entry. Tags and fused reporters are not part of them. Residues count along the entry.
UniProt P25774, 115-331: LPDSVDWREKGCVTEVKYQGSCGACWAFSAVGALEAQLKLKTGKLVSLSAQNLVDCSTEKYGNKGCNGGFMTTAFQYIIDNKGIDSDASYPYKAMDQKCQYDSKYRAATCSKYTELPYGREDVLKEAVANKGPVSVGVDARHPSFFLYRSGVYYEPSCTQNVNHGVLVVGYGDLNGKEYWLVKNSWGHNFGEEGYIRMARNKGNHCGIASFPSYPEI

target: T1, Cathepsin S (Homo sapiens, UniProt P25774); assay: Inhibition of Cathepsin S in a cell based assay (Riese et al., Immunity 1996); conditions: compounds of formulas (I) and (II)
T1 construct: endogenous in cells

Concentration at which potent inhibition of Cathepsin S in a cell based assay was demonstrated, ≤ 15 µM:
CC(C)(C)CC(NC(=O)c1ccccc1)C(=O)NC1(C#N)CCN(Cc2ccccc2)C1 (stereo not drawn) [N-[1-(1-Benzyl-3-cyano-pyrrolidin-3-ylcarbamoyl)-3,3-dimethyl-butyl]-benzamide]
CC(C)(C)CC(NC(=O)c1ccc(NS(C)(=O)=O)cc1)C(=O)NC1(C#N)CCN(Cc2ccccc2)C1 (stereo not drawn) [N-[1-(1-benzyl-3-cyano-pyrrolidin-3-ylcarbamoyl)-3,3-dimethyl-butyl]-4-methanesulfonylamino-benzamide]
CN1CCC(C#N)(NC(=O)C(CC2CCCCC2)NC(=O)c2ccccc2F)CC1 (stereo not drawn) [N-[1-(4-cyano-1-methyl-piperidin-4-ylcarbamoyl)-2-cyclohexyl-ethyl]-2-fluoro-benzamide]
CN1CCC(C#N)(NC(=O)C(CC2CCCCC2)NC(=O)c2cccc(Oc3ccccc3)c2)CC1 (stereo not drawn) [N-[1-(4-cyano-1-methyl-piperidin-4-ylcarbamoyl)-2-cyclohexyl-ethyl]-3-phenoxy-benzamide]
CN1CCC(C#N)(NC(=O)C(CC2CCCCC2)NC(=O)c2ccc(F)cc2)CC1 (stereo not drawn) [N-[1-(4-cyano-1-methyl-piperidin-4-ylcarbamoyl)-2-cyclohexyl-ethyl]-4-fluoro-benzamide]
COc1ccc(C(=O)NC(CC2CCCCC2)C(=O)NC2(C#N)CCN(C)CC2)cc1 (stereo not drawn) [N-[1-(4-cyano-1-methyl-piperidin-4-ylcarbamoyl)-2-cyclohexyl-ethyl]-4-methoxy-benzamide]
CN1CCC(C#N)(NC(=O)C(CC2CCCCC2)NC(=O)c2ccncc2)CC1 (stereo not drawn) [N-[1-(4-cyano-1-methyl-piperidin-4-ylcarbamoyl)-2-cyclohexyl-ethyl]-isonicotinaide]
CN1CCC(C#N)(NC(=O)C(CC(C)(C)C)NC(=O)c2ccc(NS(C)(=O)=O)cc2)CC1 (stereo not drawn) [N-[1-(4-cyano-1-methyl-piperidin-4-ylcarbamoyl)-3,3-dimethyl-butyl]-4-methanesulfonylamino-benzamide]
CN1CCC(C#N)(NC(=O)C(CC(C)(C)C)NC(=O)c2ccccc2)CC1 (stereo not drawn) [N-[1-(4-cyano-1-methyl-piperidin-4-ylcarbamoyl)-3,3-dimethyl-butyl]-benzamide]
N#CC1(NC(=O)C(CC2CCCCC2)NC(=O)c2ccncc2)CCOCC1 (stereo not drawn) [N-[4-Cyano-tetrahydro-pyran-4-ylcarbamoyl)-2-cyclohexyl-ethyl]-isonicotinamide]
CC(C)CC(NC(=O)c1ccc2ccccc2c1)C(=O)NC1(C#N)CCN(Cc2ccccc2)C1 (stereo not drawn) [Naphthalene-2-carboxylic acid [1-(1-benzyl-3-cyano-pyrrolidin-3-ylcarbamoyl)-3-methyl-butyl]-amide]
N#CC1(NC(=O)C(CC2CCCCC2)NC(=O)c2cnccn2)CCN(Cc2ccccc2)C1 (stereo not drawn) [Pyrazine-2-carboxylic acid [1-(1-benzyl-3-cyano-pyrrolidin-3-ylcarbamoyl)-2-cyclohexyl-ethyl]-amide]
CC(C)(C)CC(NC(=O)c1cnccn1)C(=O)NC1(C#N)CCN(Cc2ccccc2)C1 (stereo not drawn) [Pyrazine-2-carboxylic acid [1-(1-benzyl-3-cyano-pyrrolidin-3-ylcarbamoyl)-3,3-dimethyl-butyl]-amide]
CN1CCC(C#N)(NC(=O)C(CC2CCCCC2)NC(=O)c2cnccn2)CC1 (stereo not drawn) [Pyrazine-2-carboxylic acid [1-(4-cyano-1-methyl-piperidin-4-ylcarbamoyl)-2-cyclohexyl-ethyl]-amide]
CCCN1CCC(C#N)(NC(=O)C(CC(C)(C)C)NC(=O)c2cnccn2)CC1 (stereo not drawn) [Pyrazine-2-carboxylic acid [1-(4-cyano-1-propyl-piperidin-4-ylcarbamoyl)-3,3-dimethyl-butyl]-amide]
N#CC1(NC(=O)C(CC2CCCCC2)NC(=O)N2CCCC2)CCN(Cc2ccccc2)C1 (stereo not drawn) [Pyrrolidine-1-carboxylic acid [1-(1-benzyl-3-cyano-pyrrolidin-3-ylcarbamoyl)-2-cyclohexyl-ethyl]-amide]
N#CC1(NC(=O)C(CC2CCCCC2)NC(=O)OCc2ccccc2)CCN(Cc2ccccc2)C1 (stereo not drawn) [[1-(1-Benzyl-3-cyano-pyrrolidin-3-ylcarbamoyl)-2-cyclohexyl-ethyl]-carbamic acid benzyl ester]
N-[1-(1-Benzyl-3-cyano-pyrrolidin-3-ylcarbamoyl)-2-cyclohexyl-ethyl-ethyl]-isonicotinamide
